# Measurements taken from the supplement of paper PMC12823440, “Inhibitors supercharge kinase turnover through native proteolytic circuits” (Nature, 2025).
# The chains behind the UniProt entries cited, without tags or fusion partners. Where a name states a change or a piece, a line headed by the entry shows the natural chain unless it says otherwise.
# UniProt P31749: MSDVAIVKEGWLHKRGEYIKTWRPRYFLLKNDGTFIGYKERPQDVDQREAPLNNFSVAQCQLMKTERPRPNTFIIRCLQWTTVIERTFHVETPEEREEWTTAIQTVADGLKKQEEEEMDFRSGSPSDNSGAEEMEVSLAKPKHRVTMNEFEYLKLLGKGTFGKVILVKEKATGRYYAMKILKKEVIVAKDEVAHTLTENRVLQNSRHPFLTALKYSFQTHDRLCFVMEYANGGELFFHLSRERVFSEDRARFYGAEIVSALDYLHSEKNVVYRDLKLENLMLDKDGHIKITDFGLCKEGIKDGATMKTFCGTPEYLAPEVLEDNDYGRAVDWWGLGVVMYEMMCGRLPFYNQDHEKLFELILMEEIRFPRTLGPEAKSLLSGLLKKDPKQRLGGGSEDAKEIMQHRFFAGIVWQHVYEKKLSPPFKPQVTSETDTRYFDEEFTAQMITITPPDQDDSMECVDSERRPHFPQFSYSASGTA
# UniProt Q9UM73: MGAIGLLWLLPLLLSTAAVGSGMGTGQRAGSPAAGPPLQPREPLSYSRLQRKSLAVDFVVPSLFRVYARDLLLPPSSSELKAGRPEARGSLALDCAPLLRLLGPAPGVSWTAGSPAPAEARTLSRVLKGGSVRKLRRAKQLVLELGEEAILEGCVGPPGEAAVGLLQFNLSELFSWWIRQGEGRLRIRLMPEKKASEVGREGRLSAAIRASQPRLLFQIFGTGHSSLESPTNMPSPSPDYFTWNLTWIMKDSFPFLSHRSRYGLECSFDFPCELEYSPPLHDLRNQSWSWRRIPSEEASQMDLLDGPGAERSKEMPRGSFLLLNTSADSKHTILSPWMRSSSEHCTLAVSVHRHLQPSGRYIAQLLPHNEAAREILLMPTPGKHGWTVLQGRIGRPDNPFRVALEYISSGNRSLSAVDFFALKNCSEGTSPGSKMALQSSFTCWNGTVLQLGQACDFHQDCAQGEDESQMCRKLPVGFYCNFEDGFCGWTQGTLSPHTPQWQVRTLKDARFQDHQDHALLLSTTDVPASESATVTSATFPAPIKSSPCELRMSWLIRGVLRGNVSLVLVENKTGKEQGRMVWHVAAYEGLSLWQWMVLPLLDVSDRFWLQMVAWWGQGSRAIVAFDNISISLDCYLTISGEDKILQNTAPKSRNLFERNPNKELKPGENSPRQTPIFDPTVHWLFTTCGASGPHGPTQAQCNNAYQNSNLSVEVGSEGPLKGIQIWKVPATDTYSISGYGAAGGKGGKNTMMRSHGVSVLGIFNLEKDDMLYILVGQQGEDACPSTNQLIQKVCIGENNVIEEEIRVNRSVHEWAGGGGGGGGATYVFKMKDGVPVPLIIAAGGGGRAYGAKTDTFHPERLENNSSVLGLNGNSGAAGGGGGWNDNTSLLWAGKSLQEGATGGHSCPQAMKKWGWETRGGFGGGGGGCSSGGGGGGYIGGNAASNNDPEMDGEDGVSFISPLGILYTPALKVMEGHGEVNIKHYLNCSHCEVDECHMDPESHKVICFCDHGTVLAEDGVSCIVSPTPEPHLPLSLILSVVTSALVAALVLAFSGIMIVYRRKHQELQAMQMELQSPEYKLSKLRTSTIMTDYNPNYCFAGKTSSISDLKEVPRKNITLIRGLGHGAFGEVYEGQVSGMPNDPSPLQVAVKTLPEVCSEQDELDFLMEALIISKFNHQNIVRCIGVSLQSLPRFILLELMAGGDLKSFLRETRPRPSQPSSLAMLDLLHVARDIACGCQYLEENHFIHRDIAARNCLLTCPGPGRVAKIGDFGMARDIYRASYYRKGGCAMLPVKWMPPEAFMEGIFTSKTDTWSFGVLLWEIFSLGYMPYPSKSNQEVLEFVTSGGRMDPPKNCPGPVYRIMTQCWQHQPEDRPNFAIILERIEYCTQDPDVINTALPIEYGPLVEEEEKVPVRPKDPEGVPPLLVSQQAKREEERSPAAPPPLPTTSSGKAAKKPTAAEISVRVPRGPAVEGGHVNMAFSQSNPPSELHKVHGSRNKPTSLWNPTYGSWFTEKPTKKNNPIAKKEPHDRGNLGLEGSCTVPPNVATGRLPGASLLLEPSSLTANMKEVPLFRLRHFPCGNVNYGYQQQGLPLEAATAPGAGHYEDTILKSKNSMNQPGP
# UniProt O14965: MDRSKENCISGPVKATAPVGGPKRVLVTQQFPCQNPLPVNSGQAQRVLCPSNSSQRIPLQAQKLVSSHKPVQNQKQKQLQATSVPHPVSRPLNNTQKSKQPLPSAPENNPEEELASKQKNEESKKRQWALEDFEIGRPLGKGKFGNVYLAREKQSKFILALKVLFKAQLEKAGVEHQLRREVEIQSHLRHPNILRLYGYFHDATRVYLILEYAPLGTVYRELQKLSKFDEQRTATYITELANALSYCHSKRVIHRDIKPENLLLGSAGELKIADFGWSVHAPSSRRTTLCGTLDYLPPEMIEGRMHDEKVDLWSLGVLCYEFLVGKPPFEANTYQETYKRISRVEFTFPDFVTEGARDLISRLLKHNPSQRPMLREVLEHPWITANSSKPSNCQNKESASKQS
# UniProt Q96GD4, whole entry: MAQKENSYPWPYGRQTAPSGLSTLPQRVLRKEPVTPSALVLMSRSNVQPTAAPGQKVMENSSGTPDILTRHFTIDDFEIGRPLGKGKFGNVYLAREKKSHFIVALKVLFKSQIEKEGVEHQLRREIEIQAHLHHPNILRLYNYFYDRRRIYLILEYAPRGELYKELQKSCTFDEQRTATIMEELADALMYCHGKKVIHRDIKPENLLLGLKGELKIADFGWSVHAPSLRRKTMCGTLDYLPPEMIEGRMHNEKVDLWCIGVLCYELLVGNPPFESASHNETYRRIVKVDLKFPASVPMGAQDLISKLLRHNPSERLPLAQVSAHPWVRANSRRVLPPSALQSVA
# UniProt Q9UQB9: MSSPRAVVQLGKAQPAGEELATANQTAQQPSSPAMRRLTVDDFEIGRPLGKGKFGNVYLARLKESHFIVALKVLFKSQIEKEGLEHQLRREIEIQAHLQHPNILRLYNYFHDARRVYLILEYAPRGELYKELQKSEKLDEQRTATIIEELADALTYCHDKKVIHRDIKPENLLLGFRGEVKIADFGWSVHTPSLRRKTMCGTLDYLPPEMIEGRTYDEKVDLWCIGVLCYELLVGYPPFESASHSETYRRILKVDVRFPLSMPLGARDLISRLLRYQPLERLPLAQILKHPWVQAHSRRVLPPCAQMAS
# UniProt P51451: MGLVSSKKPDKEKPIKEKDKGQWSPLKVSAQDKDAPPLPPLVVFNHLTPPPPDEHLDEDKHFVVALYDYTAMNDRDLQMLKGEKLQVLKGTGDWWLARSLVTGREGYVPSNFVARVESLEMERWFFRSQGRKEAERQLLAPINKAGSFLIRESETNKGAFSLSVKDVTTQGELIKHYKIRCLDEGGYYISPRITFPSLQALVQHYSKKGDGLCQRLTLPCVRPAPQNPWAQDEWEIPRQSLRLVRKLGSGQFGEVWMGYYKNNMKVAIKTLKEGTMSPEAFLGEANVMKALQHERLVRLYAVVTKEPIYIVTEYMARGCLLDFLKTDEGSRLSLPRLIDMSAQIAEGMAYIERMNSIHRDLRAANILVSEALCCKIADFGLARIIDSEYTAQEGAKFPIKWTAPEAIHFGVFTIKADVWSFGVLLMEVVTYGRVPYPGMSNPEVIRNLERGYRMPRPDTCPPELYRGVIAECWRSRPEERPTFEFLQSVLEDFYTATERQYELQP
# UniProt P15056, whole entry, looked up: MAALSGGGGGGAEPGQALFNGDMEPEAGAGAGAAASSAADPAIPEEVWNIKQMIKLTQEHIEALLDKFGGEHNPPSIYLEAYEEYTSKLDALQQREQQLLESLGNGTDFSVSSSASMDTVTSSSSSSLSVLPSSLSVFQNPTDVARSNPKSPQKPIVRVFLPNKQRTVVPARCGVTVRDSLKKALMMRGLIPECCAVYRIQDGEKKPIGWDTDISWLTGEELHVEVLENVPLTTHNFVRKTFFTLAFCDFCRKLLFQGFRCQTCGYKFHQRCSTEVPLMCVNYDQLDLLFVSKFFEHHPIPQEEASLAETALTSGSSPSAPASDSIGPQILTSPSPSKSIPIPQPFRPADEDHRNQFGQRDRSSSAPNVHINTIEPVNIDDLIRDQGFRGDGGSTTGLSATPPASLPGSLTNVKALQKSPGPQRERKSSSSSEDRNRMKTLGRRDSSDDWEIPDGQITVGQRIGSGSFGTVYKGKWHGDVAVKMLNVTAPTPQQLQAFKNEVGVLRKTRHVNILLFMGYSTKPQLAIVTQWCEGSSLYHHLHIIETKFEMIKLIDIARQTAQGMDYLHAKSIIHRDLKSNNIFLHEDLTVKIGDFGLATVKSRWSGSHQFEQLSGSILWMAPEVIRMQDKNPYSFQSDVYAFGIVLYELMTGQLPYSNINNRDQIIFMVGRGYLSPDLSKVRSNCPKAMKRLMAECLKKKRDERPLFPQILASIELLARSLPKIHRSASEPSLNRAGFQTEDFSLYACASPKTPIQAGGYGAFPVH
# UniProt Q06187: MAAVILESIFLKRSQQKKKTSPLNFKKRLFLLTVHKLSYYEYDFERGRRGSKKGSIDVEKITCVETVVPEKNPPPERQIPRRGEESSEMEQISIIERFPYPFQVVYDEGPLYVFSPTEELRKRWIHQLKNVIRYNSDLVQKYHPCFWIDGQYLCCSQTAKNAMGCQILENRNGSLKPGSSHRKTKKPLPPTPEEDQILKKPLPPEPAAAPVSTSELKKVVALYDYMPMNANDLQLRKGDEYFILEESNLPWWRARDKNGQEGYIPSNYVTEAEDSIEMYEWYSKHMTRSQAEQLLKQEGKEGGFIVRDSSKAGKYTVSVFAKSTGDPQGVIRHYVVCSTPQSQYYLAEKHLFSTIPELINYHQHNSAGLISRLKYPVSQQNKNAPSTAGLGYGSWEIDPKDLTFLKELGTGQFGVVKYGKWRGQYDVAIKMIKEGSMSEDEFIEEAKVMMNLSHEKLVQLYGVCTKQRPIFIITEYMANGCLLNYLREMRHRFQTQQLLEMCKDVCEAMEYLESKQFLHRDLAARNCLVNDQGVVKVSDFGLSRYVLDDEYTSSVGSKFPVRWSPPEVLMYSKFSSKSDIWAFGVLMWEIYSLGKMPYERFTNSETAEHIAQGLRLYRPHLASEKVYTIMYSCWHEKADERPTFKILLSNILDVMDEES
# UniProt Q9UQM7, whole entry: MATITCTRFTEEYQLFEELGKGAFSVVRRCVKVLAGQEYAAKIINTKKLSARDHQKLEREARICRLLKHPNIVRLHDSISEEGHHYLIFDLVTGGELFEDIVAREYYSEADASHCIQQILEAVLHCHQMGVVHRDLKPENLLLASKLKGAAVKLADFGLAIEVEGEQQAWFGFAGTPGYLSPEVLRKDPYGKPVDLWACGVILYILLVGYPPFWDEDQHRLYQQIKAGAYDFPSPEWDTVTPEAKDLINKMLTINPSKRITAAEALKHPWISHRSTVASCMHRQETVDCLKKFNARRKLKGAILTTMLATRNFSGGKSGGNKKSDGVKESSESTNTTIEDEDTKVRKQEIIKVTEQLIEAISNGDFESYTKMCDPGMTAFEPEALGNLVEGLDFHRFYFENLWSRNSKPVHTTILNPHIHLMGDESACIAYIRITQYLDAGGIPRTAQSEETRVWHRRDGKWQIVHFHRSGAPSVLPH
# UniProt Q15131: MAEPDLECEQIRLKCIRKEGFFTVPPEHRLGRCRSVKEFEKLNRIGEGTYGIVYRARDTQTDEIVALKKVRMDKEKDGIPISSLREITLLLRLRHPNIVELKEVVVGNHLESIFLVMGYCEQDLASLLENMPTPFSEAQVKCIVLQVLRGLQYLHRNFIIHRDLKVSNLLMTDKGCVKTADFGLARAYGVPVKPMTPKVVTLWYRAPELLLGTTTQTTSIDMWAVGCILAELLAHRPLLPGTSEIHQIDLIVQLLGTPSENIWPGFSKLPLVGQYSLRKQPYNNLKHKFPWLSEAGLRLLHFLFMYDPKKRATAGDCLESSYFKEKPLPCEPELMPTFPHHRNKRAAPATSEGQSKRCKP
# UniProt P11802: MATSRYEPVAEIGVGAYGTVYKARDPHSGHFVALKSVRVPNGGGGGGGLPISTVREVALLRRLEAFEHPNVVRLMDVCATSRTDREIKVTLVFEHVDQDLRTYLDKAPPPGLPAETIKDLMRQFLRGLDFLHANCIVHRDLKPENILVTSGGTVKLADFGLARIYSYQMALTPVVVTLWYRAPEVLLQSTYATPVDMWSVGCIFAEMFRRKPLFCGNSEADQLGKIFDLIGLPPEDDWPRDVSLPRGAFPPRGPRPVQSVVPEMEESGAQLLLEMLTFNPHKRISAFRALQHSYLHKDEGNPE
# UniProt Q00534, whole entry: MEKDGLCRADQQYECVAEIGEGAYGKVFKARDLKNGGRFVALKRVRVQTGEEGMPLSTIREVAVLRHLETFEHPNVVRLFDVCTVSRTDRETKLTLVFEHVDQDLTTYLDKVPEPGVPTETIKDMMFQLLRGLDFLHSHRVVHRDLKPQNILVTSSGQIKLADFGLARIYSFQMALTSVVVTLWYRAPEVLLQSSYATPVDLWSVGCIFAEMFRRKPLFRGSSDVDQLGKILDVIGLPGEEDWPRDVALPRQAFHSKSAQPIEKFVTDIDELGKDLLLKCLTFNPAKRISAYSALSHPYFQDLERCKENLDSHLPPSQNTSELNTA
# Some of the results follow. The calls rarely recur for the same compound in another form.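 In K562 cells expressing nanoluciferase-fused kinases, luminescence was recorded at 4 h intervals between 2 and 18 h, normalized as percent of control with DMSO at 100% and a positive control at 0%. A significant (2 sigma) signal drop marks a time point as decreased. The authors' rule for a hit is not shown and takes in more than the number of time points.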
# Assays:
# Test in all cases: kinase-Nluc reporter destabilization hit call (1 = scored as downregulated) (binary); higher = compound decreases kinase abundance
# Conditions in all cases: K562; 2-18 h
# ABL1 = ABL1 (UniProt P00519)
# AKT1 = AKT1 (UniProt P31749)
# ALK = ALK (UniProt Q9UM73)
# ARAF = ARAF (UniProt P10398)
# AURKA = AURKA (UniProt O14965)
# AURKB = AURKB (UniProt Q96GD4)
# AURKC = AURKC (UniProt Q9UQB9)
# BLK = BLK (UniProt P51451)
# BMX = BMX (UniProt P51813)
# BRAF = BRAF (UniProt P15056)
# BRAF_V600E = system: BRAF_V600E
# BTK = BTK (UniProt Q06187)
# CAMK2A = CAMK2A (UniProt Q9UQM7)
# CAMK2G = CAMK2G (UniProt Q13555)
# CDK10 = CDK10 (UniProt Q15131)
# CDK2 = CDK2 (UniProt P24941)
# CDK3 = CDK3 (UniProt Q00526)
# CDK4 = CDK4 (UniProt P11802)
# CDK5 = CDK5 (UniProt Q00535)
# CDK6 = CDK6 (UniProt Q00534)
Structure (SMILES),kinase-Nluc reporter destabilization hit call (ABL1),kinase-Nluc reporter destabilization hit call (AKT1),kinase-Nluc reporter destabilization hit call (ALK),kinase-Nluc reporter destabilization hit call (ARAF),kinase-Nluc reporter destabilization hit call (AURKA),kinase-Nluc reporter destabilization hit call (AURKB),kinase-Nluc reporter destabilization hit call (AURKC),kinase-Nluc reporter destabilization hit call (BLK),kinase-Nluc reporter destabilization hit call (BMX),kinase-Nluc reporter destabilization hit call (BRAF),kinase-Nluc reporter destabilization hit call (BRAF_V600E),kinase-Nluc reporter destabilization hit call (BTK),kinase-Nluc reporter destabilization hit call (CAMK2A),kinase-Nluc reporter destabilization hit call (CAMK2G),kinase-Nluc reporter destabilization hit call (CDK10),kinase-Nluc reporter destabilization hit call (CDK2),kinase-Nluc reporter destabilization hit call (CDK3),kinase-Nluc reporter destabilization hit call (CDK4),kinase-Nluc reporter destabilization hit call (CDK5),kinase-Nluc reporter destabilization hit call (CDK6)
Nc1nc(Nc2ccc3c(c2)CC[C@@H](N2CCCC2)CC3)nn1-c1cc2c(nn1)-c1ccccc1CCC2 [Bemcentinib] (2.5 µM),inactive: 0,inactive: 0,inactive: 0,inactive: 0,inactive: 0,inactive: 0,inactive: 0,inactive: 0,inactive: 0,inactive: 0,inactive: 0,inactive: 0,inactive: 0,inactive: 0,inactive: 0,inactive: 0,inactive: 0,inactive: 0,inactive: 0,inactive: 0
CCOC(=O)c1c(N2CCc3ccc(OC)cc3C2)oc(C=C2C=Nc3ncccc32)c1O (10 µM),active: 1,inactive: 0,inactive: 0,inactive: 0,inactive: 0,inactive: 0,inactive: 0,inactive: 0,inactive: 0,inactive: 0,inactive: 0,inactive: 0,inactive: 0,inactive: 0,inactive: 0,inactive: 0,inactive: 0,inactive: 0,inactive: 0,inactive: 0
N#C/C(=C/c1ccc(O)c(O)c1)C(=O)N1CCc2ccccc21 [Tyrphostin AG 528] (10 µM),inactive: 0,inactive: 0,inactive: 0,inactive: 0,inactive: 0,inactive: 0,inactive: 0,inactive: 0,inactive: 0,inactive: 0,inactive: 0,inactive: 0,inactive: 0,inactive: 0,inactive: 0,inactive: 0,inactive: 0,inactive: 0,inactive: 0,inactive: 0
N#CC(=C(/N)Sc1ccccc1N)/C(C#N)=C(\N)Sc1ccccc1N (10 µM),inactive: 0,inactive: 0,inactive: 0,inactive: 0,inactive: 0,inactive: 0,inactive: 0,inactive: 0,inactive: 0,inactive: 0,inactive: 0,inactive: 0,inactive: 0,inactive: 0,inactive: 0,inactive: 0,inactive: 0,inactive: 0,inactive: 0,inactive: 0
Cc1cc2c(F)c(Oc3ncnn4cc(OC[C@@H](C)OC(=O)[C@H](C)N)c(C)c34)ccc2[nH]1 [Brivanib (alaninate)] (10 µM),inactive: 0,inactive: 0,inactive: 0,inactive: 0,inactive: 0,inactive: 0,inactive: 0,inactive: 0,inactive: 0,inactive: 0,inactive: 0,inactive: 0,inactive: 0,inactive: 0,inactive: 0,inactive: 0,inactive: 0,inactive: 0,inactive: 0,inactive: 0
CO[C@@H]1[C@H](N(C)C(=O)c2ccccc2)C[C@H]2O[C@]1(C)n1c3ccccc3c3c4c(c5c6ccccc6n2c5c31)C(=O)NC4 [Midostaurin] (2.5 µM),inactive: 0,inactive: 0,inactive: 0,inactive: 0,inactive: 0,inactive: 0,inactive: 0,inactive: 0,inactive: 0,inactive: 0,inactive: 0,inactive: 0,inactive: 0,inactive: 0,inactive: 0,inactive: 0,inactive: 0,inactive: 0,inactive: 0,inactive: 0
Cc1cccc(-c2nn3c(c2-c2ccnc4ccc(C(N)=O)cc24)CCC3)n1 [Galunisertib] (10 µM),inactive: 0,inactive: 0,inactive: 0,inactive: 0,inactive: 0,inactive: 0,inactive: 0,inactive: 0,inactive: 0,inactive: 0,inactive: 0,inactive: 0,inactive: 0,inactive: 0,inactive: 0,inactive: 0,inactive: 0,inactive: 0,inactive: 0,inactive: 0
COc1cc2nc(-c3cc(F)ccc3O)nc(N[C@@H]3CNC[C@H]3C(C)(C)O)c2cc1OC (2.5 µM),inactive: 0,inactive: 0,inactive: 0,inactive: 0,inactive: 0,inactive: 0,inactive: 0,inactive: 0,inactive: 0,inactive: 0,inactive: 0,inactive: 0,inactive: 0,inactive: 0,inactive: 0,inactive: 0,inactive: 0,inactive: 0,inactive: 0,inactive: 0
COc1cc(Nc2ccnc3ccc(Br)cc23)cc(OC)c1OC (2.5 µM),inactive: 0,inactive: 0,inactive: 0,inactive: 0,inactive: 0,inactive: 0,inactive: 0,inactive: 0,inactive: 0,inactive: 0,inactive: 0,inactive: 0,inactive: 0,inactive: 0,inactive: 0,inactive: 0,inactive: 0,inactive: 0,inactive: 0,inactive: 0
